Reference: patent publication US11123439B2 (Bayer Pharma Aktiengesellschaft, priority 2015, dated 2021)

Test: general procedure: solution-phase peptide synthesis; HATU / N,N-diisopropylethylamine
Conditions: conjugation step, trifluoroacetic acid (1:1) salt

| Substance | conjugation yield |
| --- | --- |
| N-{[2-(2-methoxyethoxy)ethoxy]acetyl}-L-alanyl-L-alanyl-N^1-{(2S)-4-[{(1R)-1-[1-benzyl-4-(2,5-difluorophenyl)-1H-pyrrol-2-yl]-2,2-dimethylpropyl}(glycoloyl)amino]-1-[(2-{[(2,5-dioxo-2,5-dihydro-1H-pyrrol-1-yl)acetyl]amino}ethyl)amino]-1-oxobutan-2-yl}-L-aspartamide | 47% of theory |
| N-Methyl-N-(pyridin-4-ylacetyl)-L-alanyl-L-alanyl-N1-{(2S)-4-[{(1R)-1-[1-benzyl-4-(2,5-difluorophenyl)-1H-pyrrol-2-yl]-2,2-dimethylpropyl}(glycoloyl)amino]-1-[(2-{[(2,5-dioxo-2,5-dihydro-1H-pyrrol-1-yl)acetyl]amino}ethyl)amino]-1-oxobutan-2-yl}-L-aspartamide | 19% of theory |
| N-(pyridin-4-ylacetyl)-L-alanyl-L-alanyl-N1-{(2S)-4-[{(1R)-1-[1-benzyl-4-(2,5-difluorophenyl)-1H-pyrrol-2-yl]-2,2-dimethylpropyl}(glycoloyl)amino]-1-[(2-{[(2,5-dioxo-2,5-dihydro-1H-pyrrol-1-yl)acetyl]amino}ethyl)amino]-1-oxobutan-2-yl}-L-aspartamide Trifluoroacetate (1:1) | 34% of theory |
| Trifluoroacetic Acid/N-[(benzyloxy)carbonyl]-L-alanyl-L-alanyl-N^1-[(11S,15R)-15-[1-benzyl-4-(2,5-difluorophenyl)-1H-pyrrol-2-yl]-1-(2,5-dioxo-2,5-dihydro-1H-pyrrol-1-yl)-14-glycoloyl-16,16-dimethyl-6,6-dioxido-2,10-dioxo-6lambda^6-thia-3,9,14-triazaheptadecan-11-yl]-L-aspartamide (1:1) | 13% of theory |
| N-(Pyridin-4-ylacetyl)-L-alanyl-N-methyl-L-alanyl-N^1-{(2S)-4-[{(1R)-1-[1-benzyl-4-(2,5-difluorophenyl)-1H-pyrrol-2-yl]-2,2-dimethylpropyl}(glycoloyl)amino]-1-[(2-{[(2,5-dioxo-2,5-dihydro-1H-pyrrol-1-yl)acetyl]amino}ethyl)amino]-1-oxobutan-2-yl}-L-aspartamide | 17% of theory |
| N-isonicotinoyl-L-alanyl-L-alanyl-N1-{(2S)-4-[{(1R)-1-[1-benzyl-4-(2,5-difluorophenyl)-1H-pyrrol-2-yl]-2,2-dimethylpropyl}(glycoloyl)amino]-1-[(2-{[(2,5-dioxo-2,5-dihydro-1H-pyrrol-1-yl)acetyl]amino}ethyl)amino]-1-oxobutan-2-yl}-L-aspartamide Trifluoroacetate (1:1) | 46% of theory |
| N-Acetyl-L-alanyl-L-alanyl-N^1-[(2S)-4-[{(1R)-1-[1-benzyl-4-(2,5-difluorophenyl)-1H-pyrrol-2-yl]-2,2-dimethylpropyl}(glycoloyl)amino]-1-({3-[(bromoacetyl)amino]propyl}amino)-1-oxobutan-2-yl]-L-aspartamide | 24% of theory |

Same assay, conditions: late stage modification step, trifluoroacetic acid (1:1) salt

| Substance | step yield |
| --- | --- |
| N-[(2,5-Dioxo-2,5-dihydro-1H-pyrrol-1-yl)acetyl]-L-alanyl-L-alanyl-N-{(1S)-3-[{(1R)-1-[1-benzyl-4-(2,5-difluorophenyl)-1H-pyrrol-2-yl]-2,2-dimethylpropyl}(glycoloyl)amino]-1-carboxypropyl}-L-aspartamide | 29% of theory |
| L-alanyl-L-alanyl-N1-{(1S)-3-[{(1R)-1-[1-benzyl-4-(2,5-difluorophenyl)-1H-pyrrol-2-yl]-2,2-dimethylpropyl}(glycoloyl)amino]-1-carboxypropyl}-L-aspartamide | 87% of theory |
| N-[(Benzyloxy)carbonyl]-L-alanyl-L-alpha-asparagyl-N^1-{(2S)-4-[{(1R)-1-[1-benzyl-4-(2,5-difluorophenyl)-1H-pyrrol-2-yl]-2,2-dimethylpropyl}(glycoloyl)amino]-1-[(2-{[(2,5-dioxo-2,5-dihydro-1H-pyrrol-1-yl)acetyl]amino}ethyl)amino]-1-oxobutan-2-yl}-L-aspartamide/trifluoroacetic Acid (1:1) | 46% of theory |
| N-{5-[(2,5-Dioxopyrrolidin-1-yl)oxy]-5-oxopentanoyl}-L-alanyl-L-alanyl-N-{(1S)-3-[{(1R)-1-[1-benzyl-4-(2,5-difluorophenyl)-1H-pyrrol-2-yl]-2,2-dimethylpropyl}(glycoloyl)amino]-1-carboxypropyl}-L-aspartamide | 27% of theory |
